The chains behind the UniProt entries cited, without tags or fusion partners. Where a name states a change or a piece, a line headed by the entry shows the natural chain unless it says otherwise. A line that says so, or that is headed by a name, gives the form on record, which may keep a tag or linker.
UniProt P08238: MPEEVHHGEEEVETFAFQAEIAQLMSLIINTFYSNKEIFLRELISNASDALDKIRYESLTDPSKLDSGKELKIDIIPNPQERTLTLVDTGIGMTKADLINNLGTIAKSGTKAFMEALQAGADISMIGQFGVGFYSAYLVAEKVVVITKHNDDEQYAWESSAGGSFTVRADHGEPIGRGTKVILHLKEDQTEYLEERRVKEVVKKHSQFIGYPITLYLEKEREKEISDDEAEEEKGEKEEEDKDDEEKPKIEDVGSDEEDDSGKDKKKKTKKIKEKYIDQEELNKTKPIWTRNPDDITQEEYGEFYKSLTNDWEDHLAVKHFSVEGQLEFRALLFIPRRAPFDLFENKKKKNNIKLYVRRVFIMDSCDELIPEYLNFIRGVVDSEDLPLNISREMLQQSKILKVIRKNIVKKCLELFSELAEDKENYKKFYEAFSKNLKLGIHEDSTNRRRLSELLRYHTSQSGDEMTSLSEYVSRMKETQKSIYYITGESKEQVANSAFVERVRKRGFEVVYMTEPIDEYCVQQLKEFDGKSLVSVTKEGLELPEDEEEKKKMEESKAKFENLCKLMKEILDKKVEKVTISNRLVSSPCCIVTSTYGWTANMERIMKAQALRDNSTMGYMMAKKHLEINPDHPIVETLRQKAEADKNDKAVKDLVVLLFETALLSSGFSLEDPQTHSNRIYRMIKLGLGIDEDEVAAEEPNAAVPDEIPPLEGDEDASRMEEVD
Nucleophosmin 1, isoform 2 (P06748-2, form named): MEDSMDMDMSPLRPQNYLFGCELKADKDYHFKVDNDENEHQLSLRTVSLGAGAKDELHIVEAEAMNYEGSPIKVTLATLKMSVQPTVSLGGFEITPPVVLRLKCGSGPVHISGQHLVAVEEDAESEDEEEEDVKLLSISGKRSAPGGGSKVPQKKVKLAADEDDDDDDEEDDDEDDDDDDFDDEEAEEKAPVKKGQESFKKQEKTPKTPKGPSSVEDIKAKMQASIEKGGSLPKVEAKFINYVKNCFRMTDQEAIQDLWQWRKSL
UniProt P0DMV8: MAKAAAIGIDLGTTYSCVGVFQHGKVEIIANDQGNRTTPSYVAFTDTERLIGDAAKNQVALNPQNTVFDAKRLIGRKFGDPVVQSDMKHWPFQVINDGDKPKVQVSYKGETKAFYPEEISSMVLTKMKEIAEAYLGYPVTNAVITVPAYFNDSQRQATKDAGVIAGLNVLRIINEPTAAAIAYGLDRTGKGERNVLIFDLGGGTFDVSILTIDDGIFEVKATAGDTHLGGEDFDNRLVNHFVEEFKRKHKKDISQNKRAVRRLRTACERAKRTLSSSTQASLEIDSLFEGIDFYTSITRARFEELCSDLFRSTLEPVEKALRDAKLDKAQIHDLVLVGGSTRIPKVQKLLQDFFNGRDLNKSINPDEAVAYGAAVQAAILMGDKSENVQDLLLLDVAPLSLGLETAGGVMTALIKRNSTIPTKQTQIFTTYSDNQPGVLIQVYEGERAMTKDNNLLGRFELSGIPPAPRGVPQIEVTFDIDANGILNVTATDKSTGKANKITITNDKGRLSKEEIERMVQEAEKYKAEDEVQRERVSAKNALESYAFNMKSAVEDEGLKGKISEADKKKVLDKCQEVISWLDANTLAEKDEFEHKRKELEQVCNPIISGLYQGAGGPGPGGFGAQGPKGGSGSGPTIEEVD
UniProt Q04760: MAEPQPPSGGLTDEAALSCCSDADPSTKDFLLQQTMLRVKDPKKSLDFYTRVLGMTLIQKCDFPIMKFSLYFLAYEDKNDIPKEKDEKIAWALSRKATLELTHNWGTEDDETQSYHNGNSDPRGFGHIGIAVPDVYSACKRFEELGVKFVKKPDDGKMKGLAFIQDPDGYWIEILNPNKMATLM
UniProt P68371: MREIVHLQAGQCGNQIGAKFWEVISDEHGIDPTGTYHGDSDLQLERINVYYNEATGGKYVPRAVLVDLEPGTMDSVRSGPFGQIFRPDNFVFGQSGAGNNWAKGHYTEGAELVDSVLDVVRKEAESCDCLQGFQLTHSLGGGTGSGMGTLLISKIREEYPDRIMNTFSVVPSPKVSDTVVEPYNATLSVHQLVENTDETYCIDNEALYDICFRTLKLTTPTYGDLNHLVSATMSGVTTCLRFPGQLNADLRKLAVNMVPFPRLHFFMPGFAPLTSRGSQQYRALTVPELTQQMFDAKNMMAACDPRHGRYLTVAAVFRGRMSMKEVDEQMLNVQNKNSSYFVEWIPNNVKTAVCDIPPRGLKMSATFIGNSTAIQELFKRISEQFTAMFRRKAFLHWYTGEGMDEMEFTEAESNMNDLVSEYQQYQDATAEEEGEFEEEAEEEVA
UniProt Q9BQE3: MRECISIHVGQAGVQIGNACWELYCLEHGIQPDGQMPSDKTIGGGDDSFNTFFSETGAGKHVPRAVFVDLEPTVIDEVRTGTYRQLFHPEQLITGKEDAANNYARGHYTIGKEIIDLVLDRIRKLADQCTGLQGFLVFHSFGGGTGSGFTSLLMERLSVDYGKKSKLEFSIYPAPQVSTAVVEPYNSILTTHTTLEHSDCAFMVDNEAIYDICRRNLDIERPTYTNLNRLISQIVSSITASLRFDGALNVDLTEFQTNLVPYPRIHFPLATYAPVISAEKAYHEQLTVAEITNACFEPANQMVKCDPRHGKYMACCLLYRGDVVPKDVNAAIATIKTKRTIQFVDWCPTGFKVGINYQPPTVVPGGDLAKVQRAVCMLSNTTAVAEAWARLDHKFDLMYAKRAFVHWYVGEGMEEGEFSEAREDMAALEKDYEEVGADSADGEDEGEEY
UniProt P17066: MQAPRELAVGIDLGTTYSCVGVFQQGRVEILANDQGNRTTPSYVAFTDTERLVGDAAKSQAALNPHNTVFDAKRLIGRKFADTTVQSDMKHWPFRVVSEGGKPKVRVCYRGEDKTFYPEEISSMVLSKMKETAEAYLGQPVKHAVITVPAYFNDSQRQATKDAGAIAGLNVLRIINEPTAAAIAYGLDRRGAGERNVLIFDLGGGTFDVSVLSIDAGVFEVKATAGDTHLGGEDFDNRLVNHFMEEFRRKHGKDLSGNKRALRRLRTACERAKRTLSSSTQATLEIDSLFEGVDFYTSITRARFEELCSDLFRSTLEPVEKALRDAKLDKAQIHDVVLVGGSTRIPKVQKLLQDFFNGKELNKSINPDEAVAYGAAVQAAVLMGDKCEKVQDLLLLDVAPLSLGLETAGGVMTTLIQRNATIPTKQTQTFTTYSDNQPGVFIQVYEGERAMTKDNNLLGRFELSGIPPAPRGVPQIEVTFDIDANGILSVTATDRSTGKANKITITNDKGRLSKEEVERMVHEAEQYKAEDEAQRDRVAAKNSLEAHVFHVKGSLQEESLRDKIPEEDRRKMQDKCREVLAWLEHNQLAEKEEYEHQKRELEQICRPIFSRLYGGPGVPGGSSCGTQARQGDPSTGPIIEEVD
UniProt P07437: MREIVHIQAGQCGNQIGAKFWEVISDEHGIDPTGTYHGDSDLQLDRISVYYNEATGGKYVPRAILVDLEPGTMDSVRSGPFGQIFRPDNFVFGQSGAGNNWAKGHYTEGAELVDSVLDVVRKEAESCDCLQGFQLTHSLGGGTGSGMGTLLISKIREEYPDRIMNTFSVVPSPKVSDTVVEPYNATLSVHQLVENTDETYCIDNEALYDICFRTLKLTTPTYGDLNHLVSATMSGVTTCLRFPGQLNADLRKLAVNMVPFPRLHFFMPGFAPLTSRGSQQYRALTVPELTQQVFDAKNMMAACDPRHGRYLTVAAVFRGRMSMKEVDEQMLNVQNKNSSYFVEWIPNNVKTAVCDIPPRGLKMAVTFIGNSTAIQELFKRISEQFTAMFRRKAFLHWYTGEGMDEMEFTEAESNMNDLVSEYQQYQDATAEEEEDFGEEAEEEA
UniProt P11142: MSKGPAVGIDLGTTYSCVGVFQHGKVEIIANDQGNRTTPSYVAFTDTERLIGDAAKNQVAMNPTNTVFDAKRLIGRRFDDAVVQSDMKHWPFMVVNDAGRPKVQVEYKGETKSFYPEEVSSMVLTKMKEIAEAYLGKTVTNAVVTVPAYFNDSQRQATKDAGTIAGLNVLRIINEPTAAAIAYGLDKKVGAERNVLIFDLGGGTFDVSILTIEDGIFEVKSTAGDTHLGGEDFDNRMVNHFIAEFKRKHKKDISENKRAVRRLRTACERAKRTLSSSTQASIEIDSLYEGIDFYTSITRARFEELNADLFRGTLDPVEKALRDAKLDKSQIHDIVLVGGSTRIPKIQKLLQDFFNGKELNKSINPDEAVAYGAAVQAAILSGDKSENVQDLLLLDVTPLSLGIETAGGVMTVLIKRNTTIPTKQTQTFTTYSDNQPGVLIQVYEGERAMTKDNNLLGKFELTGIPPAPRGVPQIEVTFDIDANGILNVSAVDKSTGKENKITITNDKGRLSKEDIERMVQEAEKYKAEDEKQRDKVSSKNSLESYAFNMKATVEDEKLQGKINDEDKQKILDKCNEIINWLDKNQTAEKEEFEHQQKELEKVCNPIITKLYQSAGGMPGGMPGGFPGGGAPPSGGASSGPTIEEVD
UniProt P68104: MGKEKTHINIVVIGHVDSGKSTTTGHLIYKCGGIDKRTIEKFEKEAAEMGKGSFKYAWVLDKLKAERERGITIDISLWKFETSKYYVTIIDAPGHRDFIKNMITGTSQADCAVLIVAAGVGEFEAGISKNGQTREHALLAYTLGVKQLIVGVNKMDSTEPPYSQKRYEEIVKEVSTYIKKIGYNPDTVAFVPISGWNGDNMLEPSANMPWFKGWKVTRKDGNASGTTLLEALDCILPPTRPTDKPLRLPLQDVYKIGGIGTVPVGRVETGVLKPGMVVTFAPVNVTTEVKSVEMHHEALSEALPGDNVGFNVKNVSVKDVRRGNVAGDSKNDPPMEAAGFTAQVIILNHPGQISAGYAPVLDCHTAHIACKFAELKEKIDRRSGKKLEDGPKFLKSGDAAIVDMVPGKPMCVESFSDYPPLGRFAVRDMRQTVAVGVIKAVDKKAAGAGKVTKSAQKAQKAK
UniProt P04406: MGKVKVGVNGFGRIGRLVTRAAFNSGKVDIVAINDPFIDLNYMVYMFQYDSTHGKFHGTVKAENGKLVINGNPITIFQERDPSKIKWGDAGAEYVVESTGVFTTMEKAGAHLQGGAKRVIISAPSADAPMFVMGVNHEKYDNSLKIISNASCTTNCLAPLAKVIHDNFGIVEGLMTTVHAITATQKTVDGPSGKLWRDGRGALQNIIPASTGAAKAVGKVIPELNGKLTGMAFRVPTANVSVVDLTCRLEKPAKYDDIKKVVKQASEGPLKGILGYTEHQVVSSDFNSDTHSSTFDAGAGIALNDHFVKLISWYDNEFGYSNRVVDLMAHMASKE
UniProt P06733: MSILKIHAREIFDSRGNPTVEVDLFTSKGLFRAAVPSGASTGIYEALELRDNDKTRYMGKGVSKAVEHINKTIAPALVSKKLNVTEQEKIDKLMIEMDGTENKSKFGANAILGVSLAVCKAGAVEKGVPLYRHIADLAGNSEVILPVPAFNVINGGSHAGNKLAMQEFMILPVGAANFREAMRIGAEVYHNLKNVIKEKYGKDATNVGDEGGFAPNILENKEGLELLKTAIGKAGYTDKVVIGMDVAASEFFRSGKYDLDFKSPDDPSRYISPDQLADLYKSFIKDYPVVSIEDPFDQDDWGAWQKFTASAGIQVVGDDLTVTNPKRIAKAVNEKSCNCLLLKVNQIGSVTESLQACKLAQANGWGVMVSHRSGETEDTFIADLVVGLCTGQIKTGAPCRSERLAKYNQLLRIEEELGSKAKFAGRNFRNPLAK

According to article PMC6026704:

T1: Suppressor of IKKepsilon (SIKE), WT, FLAG-tagged (pCMVFLAG5a SIKE 6xHis) (human) (UniProt Q9BRV8)
T1 sequence: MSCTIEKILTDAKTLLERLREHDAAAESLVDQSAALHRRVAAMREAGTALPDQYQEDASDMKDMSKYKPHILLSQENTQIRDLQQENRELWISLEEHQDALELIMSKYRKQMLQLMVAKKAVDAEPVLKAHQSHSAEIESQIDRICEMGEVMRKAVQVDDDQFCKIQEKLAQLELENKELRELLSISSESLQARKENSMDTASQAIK

B1: UPF0568 protein C14orf166 (protein, UniProt Q9Y224 1-244)
chain: MFRRKLTALDYHNPAGFNCKDETEFRNFIVWLEDQKIRHYKIEDRGNLRNIHSSDWPKFFEKYLRDVNCPFKIQDRQEAIDWLLGLAVRLEYGDNAEKYKDLVPDNSKTADNATKNAEPLINLDVNNPDFKAGVMALANLLQIQRHDDYLVMLKAIRILVQERLTQDAVAKANQTKEGLPVALDKHILGFDTGDAVLNEAAQILRLLHIEELRELQTKINEAIVAVQAIIADPKTDHRLGKVGR
B2: Treacle protein (protein, UniProt Q13428 1-1488)
chain: MAEARKRRELLPLIYHHLLRAGYVRAAREVKEQSGQKCFLAQPVTLLDIYTHWQQTSELGRKRKAEEDAALQAKKTRVSDPISTSESSEEEEEAEAETAKATPRLASTNSSVLGADLPSSMKEKAKAETEKAGKTGNSMPHPATGKTVANLLSGKSPRKSAEPSANTTLVSETEEEGSVPAFGAAAKPGMVSAGQADSSSEDTSSSSDETDVEGKPSVKPAQVKASSVSTKESPARKAAPAPGKVGDVTPQVKGGALPPAKRAKKPEEESESSEEGSESEEEAPAGTRSQVKASEKILQVRAASAPAKGTPGKGATPAPPGKAGAVASQTKAGKPEEDSESSSEESSDSEEETPAAKALLQAKASGKTSQVGAASAPAKESPRKGAAPAPPGKTGPAVAKAQAGKREEDSQSSSEESDSEEEAPAQAKPSGKAPQVRAASAPAKESPRKGAAPAPPRKTGPAAAQVQVGKQEEDSRSSSEESDSDREALAAMNAAQVKPLGKSPQVKPASTMGMGPLGKGAGPVPPGKVGPATPSAQVGKWEEDSESSSEESSDSSDGEVPTAVAPAQEKSLGNILQAKPTSSPAKGPPQKAGPVAVQVKAEKPMDNSESSEESSDSADSEEAPAAMTAAQAKPALKIPQTKACPKKTNTTASAKVAPVRVGTQAPRKAGTATSPAGSSPAVAGGTQRPAEDSSSSEESDSEEEKTGLAVTVGQAKSVGKGLQVKAASVPVKGSLGQGTAPVLPGKTGPTVTQVKAEKQEDSESSEEESDSEEAAASPAQVKTSVKKTQAKANPAAARAPSAKGTISAPGKVVTAAAQAKQRSPSKVKPPVRNPQNSTVLARGPASVPSVGKAVATAAQAQTGPEEDSGSSEEESDSEEEAETLAQVKPSGKTHQIRAALAPAKESPRKGAAPTPPGKTGPSAAQAGKQDDSGSSSEESDSDGEAPAAVTSAQVIKPPLIFVDPNRSPAGPAATPAQAQAASTPRKARASESTARSSSSESEDEDVIPATQCLTPGIRTNVVTMPTAHPRIAPKASMAGASSSKESSRISDGKKQEGPATQVSKKNPASLPLTQAALKVLAQKASEAQPPVARTQPSSGVDSAVGTLPATSPQSTSVQAKGTNKLRKPKLPEVQQATKAPESSDDSEDSSDSSSGSEEDGEGPQGAKSAHTLGPTPSRTETLVEETAAESSEDDVVAPSQSLLSGYMTPGLTPANSQASKATPKLDSSPSVSSTLAAKDDPDGKQEAKPQQAAGMLSPKTGGKEAASGTTPQKSRKPKKGAGNPQASTLALQSNITQCLLGQPWPLNEAQVQASVVKVLTELLEQERKKVVDTTKESSRKGWESRKRKLSGDQPAARTPRSKKKKKLGAGEGGEASVSPEKTSTTSKGKAKRDKASGDVKEKKGKGSLGSQGAKDEPEEELQKGMGTVEGGDQSNPKSKKEKKKSDKRKKDKEKKEKKKKAKKASTKDSESPSQKKKKKKKKTAEQTV

What follows are molecules tested against T1, Suppressor of IKKepsilon (SIKE), WT, FLAG-tagged (pCMVFLAG5a SIKE 6xHis) (human) (assay: affinity purification with mass spectrometry; FLAG-tagged SIKE precipitated from HEK293 lysate (5 mg protein) with anti-FLAG M2 affinity gel overnight at 4 °C, washed with TBS, eluted with FLAG peptide, tryptic digest, LC-MS/MS; basal or dsRNA (50 ug/mL pI:pC, 3 h) stimulated cells).

binding, binds:
Heat shock protein HSP 90-beta (from UniProt P08238 1-724)
Nucleophosmin 1, isoform 2 (from UniProt P06748-2 1-265)
Heat shock 70-kDa protein 1A/1B (from UniProt P0DMV8 1-641)
Lactoylglutathione lyase (from UniProt Q04760 1-184) (enzyme)
Tubulin beta-4B chain (from UniProt P68371 1-445)
Tubulin alpha-1C chain (from UniProt Q9BQE3 1-449)
Heat shock 70-kDa protein 6 (from UniProt P17066 1-643)
Tubulin beta chain (from UniProt P07437 1-444)
Heat shock cognate 71-kDa protein (from UniProt P11142 1-646)
Elongation factor 1-alpha 1 (from UniProt P68104 1-462)
Glyceraldehyde-3-phosphate dehydrogenase (from UniProt P04406 1-335) (enzyme)
Alpha-enolase (from UniProt P06733 1-434) (enzyme)
B1
B2

These are yes or no findings as the source states them, for the method shown. Binding seen in cells or lysates may run through a third protein. Here binding means that the protein was enriched with, or labelled near, the bait; the list need not be complete. Where a sequence is shown, tags or fusion partners need not be part of it.
